Results published in paper PMC7431833.
No constants are given. Whether binding was seen depends on the method and setting. Binding seen in cells or lysates may run through a third protein. Some binding calls cover weakened binding; strength is not graded here. For part of these data: Sequences can lack the tags named with a protein.

The chains behind the UniProt entries cited, without tags or fusion partners. Where a name states a change or a piece, a line headed by the entry shows the natural chain unless it says otherwise. A line that says so, or that is headed by a name, gives the form on record, which may keep a tag or linker. Residues count along the entry.
UniProt Q9NQC3: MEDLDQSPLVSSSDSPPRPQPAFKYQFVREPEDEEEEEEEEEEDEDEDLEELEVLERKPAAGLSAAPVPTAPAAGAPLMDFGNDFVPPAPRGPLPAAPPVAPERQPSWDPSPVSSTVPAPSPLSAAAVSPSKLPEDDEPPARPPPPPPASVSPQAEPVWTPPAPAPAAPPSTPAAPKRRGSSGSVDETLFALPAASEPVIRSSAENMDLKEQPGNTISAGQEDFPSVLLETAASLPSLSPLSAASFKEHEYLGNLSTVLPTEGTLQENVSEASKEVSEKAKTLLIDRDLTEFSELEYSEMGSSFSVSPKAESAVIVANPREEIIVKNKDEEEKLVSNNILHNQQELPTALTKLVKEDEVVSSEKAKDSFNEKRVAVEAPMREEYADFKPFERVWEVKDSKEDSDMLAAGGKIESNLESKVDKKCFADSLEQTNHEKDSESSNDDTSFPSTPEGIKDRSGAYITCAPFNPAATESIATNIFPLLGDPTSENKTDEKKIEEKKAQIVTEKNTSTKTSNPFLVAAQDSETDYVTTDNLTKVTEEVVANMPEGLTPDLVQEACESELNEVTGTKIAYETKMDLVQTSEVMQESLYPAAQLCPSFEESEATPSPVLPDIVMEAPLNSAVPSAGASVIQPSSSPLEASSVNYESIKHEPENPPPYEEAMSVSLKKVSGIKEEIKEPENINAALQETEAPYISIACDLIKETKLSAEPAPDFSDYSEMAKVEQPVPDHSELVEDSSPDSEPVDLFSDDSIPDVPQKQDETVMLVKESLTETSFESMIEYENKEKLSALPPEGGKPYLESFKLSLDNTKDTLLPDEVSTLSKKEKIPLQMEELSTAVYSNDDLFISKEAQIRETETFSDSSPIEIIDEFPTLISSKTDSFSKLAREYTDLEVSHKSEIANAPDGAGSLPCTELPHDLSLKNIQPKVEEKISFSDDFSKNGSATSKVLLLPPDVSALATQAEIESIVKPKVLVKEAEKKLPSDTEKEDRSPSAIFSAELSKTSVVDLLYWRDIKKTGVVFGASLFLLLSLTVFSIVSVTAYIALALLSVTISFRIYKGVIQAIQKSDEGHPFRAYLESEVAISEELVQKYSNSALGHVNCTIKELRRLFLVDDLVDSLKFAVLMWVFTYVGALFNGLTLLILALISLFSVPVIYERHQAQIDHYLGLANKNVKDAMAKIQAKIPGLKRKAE
Flag-RTN4B (Reticulon 4B) (Q9NQC3-2, form named): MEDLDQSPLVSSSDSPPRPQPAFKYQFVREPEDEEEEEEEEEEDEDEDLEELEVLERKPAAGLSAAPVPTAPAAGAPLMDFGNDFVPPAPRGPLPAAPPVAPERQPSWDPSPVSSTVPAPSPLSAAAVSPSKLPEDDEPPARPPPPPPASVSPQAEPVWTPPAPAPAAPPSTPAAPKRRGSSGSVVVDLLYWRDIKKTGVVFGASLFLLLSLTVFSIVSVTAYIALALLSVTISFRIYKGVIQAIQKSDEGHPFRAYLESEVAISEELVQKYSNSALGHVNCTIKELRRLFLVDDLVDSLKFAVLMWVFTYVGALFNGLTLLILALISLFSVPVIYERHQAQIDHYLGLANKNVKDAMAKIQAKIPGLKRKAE
UniProt P56817, residues 46-501: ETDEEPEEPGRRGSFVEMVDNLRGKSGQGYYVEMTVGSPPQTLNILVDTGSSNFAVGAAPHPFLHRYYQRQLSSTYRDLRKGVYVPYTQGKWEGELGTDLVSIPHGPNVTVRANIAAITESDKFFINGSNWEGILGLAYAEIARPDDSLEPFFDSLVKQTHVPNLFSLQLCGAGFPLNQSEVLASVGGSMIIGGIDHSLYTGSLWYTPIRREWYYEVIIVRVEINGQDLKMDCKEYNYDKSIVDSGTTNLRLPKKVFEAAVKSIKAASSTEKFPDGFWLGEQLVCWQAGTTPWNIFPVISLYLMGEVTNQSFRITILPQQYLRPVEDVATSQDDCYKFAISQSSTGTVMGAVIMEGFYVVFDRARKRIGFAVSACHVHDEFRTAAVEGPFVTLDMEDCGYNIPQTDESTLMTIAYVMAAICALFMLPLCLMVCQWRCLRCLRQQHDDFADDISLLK

T1: HA-SIRT2 (Sirtuin 2) (UniProt Q8IXJ6)
T1 sequence: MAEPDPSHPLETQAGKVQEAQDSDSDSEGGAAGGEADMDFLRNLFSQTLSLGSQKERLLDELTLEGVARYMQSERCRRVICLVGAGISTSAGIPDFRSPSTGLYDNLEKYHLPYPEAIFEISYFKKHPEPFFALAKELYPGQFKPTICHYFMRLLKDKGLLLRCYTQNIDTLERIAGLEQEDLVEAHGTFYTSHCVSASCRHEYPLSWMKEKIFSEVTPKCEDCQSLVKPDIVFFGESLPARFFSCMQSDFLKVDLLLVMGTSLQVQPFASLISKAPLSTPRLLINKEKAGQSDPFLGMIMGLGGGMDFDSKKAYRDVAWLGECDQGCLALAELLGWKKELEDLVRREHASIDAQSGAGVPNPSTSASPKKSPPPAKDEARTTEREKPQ

B1: HA-SIRT2 (Sirtuin 2) (enzyme, UniProt Q8IXJ6 1-389)
chain: T1 sequence

Legend:
[1] = target: Flag-RTN4B (Reticulon 4B) (UniProt Q9NQC3); assay: co-IP; HA- and Flag-tagged proteins transiently transfected into 293T cells; whole-cell lysates incubated with HA or Flag antibody overnight at 4 °C, protein A/G agarose beads 3 hr at 4 °C, washed with lysis buffer; western blot with HA or Flag antibodies
HA-BACE1 (β‐secretase 1) = HA-BACE1 (β‐secretase 1) (UniProt P56817); assay: as above
HA-SIRT2 (Sirtuin 2) = target: T1, HA-SIRT2 (Sirtuin 2); assay: as above
[2] = target: Flag-RTN4A (Reticulon 4A) (UniProt Q9NQC3); assay: co-IP; Co-IP of SIRT2 with the three RTN4 isoforms (Appendix S1, Figure S7); cells, tags and bait not shown
[3] = target: Flag-RTN4B (Reticulon 4B) (UniProt Q9NQC3); assay: as above

Molecule	binding [1]	binding (HA-BACE1 (β‐secretase 1))	binding (HA-SIRT2 (Sirtuin 2))	binding [2]	binding [3]
HA-BACE1 (β‐secretase 1) (from UniProt P56817 46-501) (enzyme)	binds				
Flag-RTN4B (Reticulon 4B) (from UniProt Q9NQC3-2 1-373)		binds	binds		
B1	binds			binds weakly	binds
